Structures are written as SMILES. Values joined by “and” are separate entries in the source; they are usually repeats but may differ in a detail not shown here. Equal entries are not always repeated. Structures can show the parent of a compound that is named as a salt. ± gives the standard deviation of the averaged measurements. The list shows a part of the results. Single values of this set are uncertain.

We go through 52 compounds from the supplement of paper PMC10398353.

The subject of the assay is Salmonella enterica serovar Typhimurium ST313 D23580. The assay can be described thus: normalized bacterial growth (OD600 20 h minus 0 h, interquartile-mean normalized) (fraction of plate interquartile mean); higher = more bacterial growth (less inhibition). As to conditions: LPM (pH 5.8, low phosphate, low Mg2+), concentration: 10 µM, temperature: 37 °C.
`NC(CCCP(=O)(O)O)C(=O)O` (configuration not stated) [()-2-Amino-5-phosphonopentanoic acid]: the normalized bacterial growth worked out at 1.12.

`C#C[C@]1(O)CC[C@H]2[C@@H]3CCc4cc(O)ccc4[C@H]3CC[C@@]21C`: the normalized bacterial growth amounted to 0.928.

`CC(C)=CC1C(CO)C1(C)C` (configuration not stated) yielded a normalized bacterial growth of 1.04.

In the case of `Cc1occc(=O)c1O`, the normalized bacterial growth stood at 0.9.

Turning to `CCCCCCCC/C=C\CCCCCCCC(=O)NCCO` [N-Oleoylethanolamine], the normalized bacterial growth stood at 0.3.

As to `CNCC[C@@H](Oc1ccc(C(F)(F)F)cc1)c1ccccc1` [R-(-)-Fluoxetine hydrochloride], the normalized bacterial growth is 0.816.

Take `COc1ccc(C(=O)O)c(O)c1OC`: the normalized bacterial growth was determined as 1.11.

In turn, `Cc1cc(C)cc(OCC2CNC(=O)O2)c1` (configuration not stated) showed a normalized bacterial growth of 0.84.

`CC(=O)O[C@H]1C[C@@H]2CC[C@@H]3[C@H](CC[C@@]4(C)[C@H]3C[C@H]([N+]3(C)CCCCC3)[C@@H]4OC(C)=O)[C@@]2(C)C[C@@H]1N1CCCCC1` had a normalized bacterial growth of 0.721.

For the compound `C[C@]12C=CC(=O)C=C1CC[C@H]1[C@@H]3C[C@@H](O)[C@](O)(C(=O)CO)[C@@]3(C)C[C@H](O)[C@@]12F` [Triamcinolone], the normalized bacterial growth worked out at 0.914.

The compound `C[C@]12C=CC(=O)C=C1CC[C@H]1[C@@H]3C[C@@H](O)[C@](O)(C(=O)CO)[C@@]3(C)C[C@H](O)[C@@]12F` returned a normalized bacterial growth of 1.24.

Take `CC1(C)O[C@@H]2C[C@H]3[C@@H]4CCC5=CC(=O)CC[C@]5(C)[C@@]4(F)[C@@H](O)C[C@]3(C)[C@]2(C(=O)CCl)O1`: the normalized bacterial growth is 0.987.

The compound `CC1(C)O[C@@H]2C[C@H]3[C@@H]4CCC5=CC(=O)CC[C@]5(C)[C@@]4(F)[C@@H](O)C[C@]3(C)[C@]2(C(=O)CCl)O1` [Halcinonide] displayed a normalized bacterial growth of 1.12.

The compound `C[C@@H]1O[C@@H](OC[C@H]2O[C@@H](Oc3c(-c4ccc(OCCO)c(OCCO)c4)oc4cc(OCCO)cc(O)c4c3=O)[C@H](O)[C@@H](O)[C@@H]2O)[C@H](O)[C@H](O)[C@H]1O` gave a normalized bacterial growth of 1.13.

Consider `OC(c1cc(C(F)(F)F)nc2c(C(F)(F)F)cccc12)C1CCCCN1` (configuration not stated), for which the normalized bacterial growth worked out at 0.942.

The compound `CNCCCC12CCC(c3ccccc31)c1ccccc12` [Maprotiline hydrochloride] gave a normalized bacterial growth of 1.18 ± 0.48.

Compound `CC[C@H]1OC(=O)C[C@@H](O)[C@H](C)[C@@H](O[C@@H]2O[C@H](C)[C@@H](O)[C@H](N(C)C)[C@H]2O)[C@@H](CCN2C[C@H](C)C[C@H](C)C2)C[C@@H](C)C(=O)/C=C/C(C)=C/[C@@H]1CO[C@@H]1O[C@H](C)[C@@H](O)[C@@H](OC)[C@H]1OC` came in with a normalized bacterial growth of 0.865.

On to `Cc1coc2c1C(=O)C(=O)c1c-2ccc2c1CCCC2(C)C`, for which the normalized bacterial growth came to 1.12.

For the compound `Cc1cc(Cn2cnc3c2C[C@@H](C(=O)O)N(C(=O)C(c2ccccc2)c2ccccc2)C3)ccc1N`, the normalized bacterial growth is 0.858.

As to `CCCCCCC(=O)OC1CC(C)(C)NC(C)(C)C1` [TMPH hydrochloride], the normalized bacterial growth turned out to be 0.813.

Regarding `CCCCCC(=O)O[C@]1(C(C)=O)CC[C@H]2[C@@H]3CCC4=CC(=O)CC[C@]4(C)[C@H]3CC[C@@]21C`, the normalized bacterial growth amounted to 0.693.

As for `Oc1cc2c(cc1O)CN(C(=S)NCCc1ccc(Cl)cc1)CCC2` [Capsazepine], the normalized bacterial growth amounted to 0.794.

`O=C(O[C@@H]1Cc2c(O)cc(O)cc2O[C@@H]1c1ccc(O)c(O)c1)c1cc(O)c(O)c(O)c1` gave a normalized bacterial growth of 0.659.

On to `Nc1nc(Cl)nc2c1ncn2[C@@H]1O[C@H](COP(=O)(O)OP(=O)(O)OP(=O)(O)O)[C@H](O)C1O` (some centres not stated) [2-Chloroadenosine triphosphate tetrasodium], for which the normalized bacterial growth was 0.67.

`NC[C@@H](O)c1ccc(O)c(O)c1` [L(-)-Norepinephrine bitartrate]: the normalized bacterial growth was determined as 1.08.

For the compound `COc1c(C)c2c(c(O)c1C/C=C(\C)CCC(=O)O)C(=O)OC2`, the normalized bacterial growth is 0.799 ± 0.095.

The compound `CC(=O)NC(CC(=O)O)C(=O)O` (racemic) ["Aspartic acid, N-acetyl (R,S)"] returned a normalized bacterial growth of 1.08.

As to `O=C(O)c1ccc(S(=O)(=O)N(Cl)Cl)cc1`, the normalized bacterial growth was found to be 1.15.

The compound `O=C(Oc1ccccc1C(=O)O)c1ccccc1O` came in with a normalized bacterial growth of 1.09.

The compound `NS(=O)(=O)c1cc(Cl)c(Cl)c(S(N)(=O)=O)c1` [Dichlorphenamide] returned a normalized bacterial growth of 1.25.

`CCN1CCCC(OC(=O)C(c2ccccc2)c2ccccc2)C1` (configuration not stated) gave a normalized bacterial growth of 0.917.

`Nc1ccc(C(=O)O)cc1` came in with a normalized bacterial growth of 1.

Compound `CN(C)CCCSC(=N)N` yielded a normalized bacterial growth of 1.18.

`NCCNCCNCCN` yielded a normalized bacterial growth of 1.01.

On to `O=C(NCCN1CCOCC1)c1ccc(Cl)cc1` [Moclobemide], for which the normalized bacterial growth is 0.613.

As for `CN1C(=O)OC(C)(C)C1=O` [Trimethadione], the normalized bacterial growth is 1.33.

Consider `CC(=O)CCCCn1c(=O)c2c(ncn2C)n(C)c1=O` [Pentoxifylline], for which the normalized bacterial growth amounted to 1.11.

In the case of `OCCN1CCN(CCCN2c3ccccc3C=Cc3ccccc32)CC1` [Opipramol dihydrochloride], the normalized bacterial growth came to 0.911.

`O=C(O)C=C1CCCc2ccccc2C1O` (configuration not stated): the normalized bacterial growth is 1.04.

`C[C@H]1O[C@@H](n2cc(F)c(=O)[nH]c2=O)[C@H](O)[C@@H]1O` [5-fluoro-5'-deoxyuridine] had a normalized bacterial growth of 0.455.

In turn, `Clc1ccc(C(c2ccc(Cl)cc2)[n+]2ccn(CC(OCc3ccc(Cl)cc3Cl)c3ccc(Cl)cc3Cl)c2)cc1` (configuration not stated) [Calmidazolium chloride] gave a normalized bacterial growth of 0.0556.

In turn, `CC1(C)CC[C@]2(C(=O)O)CC[C@]3(C)C(=CC[C@@H]4[C@@]5(C)CC[C@H](O)C(C)(C)[C@@H]5CC[C@]43C)[C@@H]2C1` showed a normalized bacterial growth of 1.17.

With `CCCCNc1cc(C(=O)O)cc(S(N)(=O)=O)c1Oc1ccccc1` [Bumetanide], the normalized bacterial growth worked out at 1.07.

As to `O=c1c(O)c(-c2ccc(O)cc2)oc2ccccc12`, the normalized bacterial growth turned out to be 1.1.

Turning to `CC(=O)Oc1ccccc1C(=O)Oc1ccccc1C(=O)O`, the normalized bacterial growth came to 1.16.

Compound `N[C@H](C(=O)O)[C@@H]1CC(Cl)=NO1` came in with a normalized bacterial growth of 0.964.

The compound `CC(C)n1c(/C=C/C(O)CC(O)CC(=O)O)c(-c2ccc(F)cc2)c2ccccc21` (configuration not stated) [Fluvastatin sodium salt] displayed a normalized bacterial growth of 0.814.

For the compound `CCCCCC(O)c1cccc(OCc2ccc3ccccc3n2)c1` (configuration not stated), the normalized bacterial growth stood at 1.13.

Consider `COc1ccc(C[C@H](N)C(=O)N[C@H]2[C@@H](O)[C@H](n3cnc4c(N(C)C)ncnc43)O[C@@H]2CO)cc1` [Puromycin dihydrochloride], for which the normalized bacterial growth was 0.972.

With `COc1ccc(C[C@H](N)C(=O)N[C@H]2[C@@H](O)[C@H](n3cnc4c(N(C)C)ncnc43)O[C@@H]2CO)cc1`, the normalized bacterial growth is 1.14 and 0.995.

On to `COc1ccccc1NC(=O)Nc1nc(-c2cccnc2)nc2ccccc12`, for which the normalized bacterial growth was found to be 0.557.

Consider `CCCCC/C=C/CCC(=O)N[C@H]1[C@H](Oc2c3cc4cc2Oc2ccc(cc2Cl)[C@@H](O[C@@H]2O[C@H](CO)[C@@H](O)[C@H](O)[C@H]2NC(C)=O)[C@@H]2NC(=O)[C@H](NC(=O)[C@@H]4NC(=O)[C@H]4NC(=O)C(Cc5ccc(c(Cl)c5)O3)NC(=O)[C@H](N)c3ccc(O)c(c3)Oc3cc(O)cc4c3)c3ccc(O)c(c3)-c3c(OC4O[C@H](CO)[C@@H](O)[C@H](O)[C@@H]4O)cc(O)cc3[C@@H](C(=O)O)NC2=O)O[C@H](CO)[C@@H](O)[C@@H]1O` (some centres not stated) [TEICOPLANIN [A(2-1) shown]], for which the normalized bacterial growth amounted to 1.13.
